Laboratory results: paper PMC11850723
No constants are given. Whether binding was seen depends on the method and setting. In cells and extracts the contact can be indirect. Some entries that bind do so weakly or less than the wild type. One block for each binder: values may come before it.

Key:
[1] = target: T1, Tim17 (S. cerevisiae (endogenous in YPH499 mitochondria)) (UniProt P39515); assay: co-IP; isolated mitochondria solubilized in 1% digitonin (20 mM Tris-HCl, 80 mM KCl, 10% glycerol, 5 mM EDTA, pH 8.0), 4 °C; affinity-purified antibodies prebound to Protein A-Sepharose; western blotting; wild type, tim23G112L, Tim23-depleted and tim17C10S/C77S mitochondria
T1 sequence: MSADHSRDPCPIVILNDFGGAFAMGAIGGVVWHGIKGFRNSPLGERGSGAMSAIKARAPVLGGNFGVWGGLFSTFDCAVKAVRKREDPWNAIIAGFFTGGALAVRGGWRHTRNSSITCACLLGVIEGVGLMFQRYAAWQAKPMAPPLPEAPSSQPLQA

[2] = target: T2, Dbi1 (disulfide bond formation in inner membrane proteins), protein encoded by ORF YDL157c (S. cerevisiae (endogenous in YPH499 mitochondria)) (UniProt Q12082); assay: as above
T2 sequence: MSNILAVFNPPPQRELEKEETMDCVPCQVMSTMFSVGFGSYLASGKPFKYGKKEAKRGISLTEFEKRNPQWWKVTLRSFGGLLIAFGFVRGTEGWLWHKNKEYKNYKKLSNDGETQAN

- binding [1]: binds
B1: Dbi1 (disulfide bond formation in inner membrane proteins), protein encoded by ORF YDL157c (protein, UniProt Q12082 1-118)
chain: T2 sequence

- binding [2]: binds
B2: Tim17 (protein, UniProt P39515 1-158)
chain: T1 sequence
